# Test results reported in the supplement of paper PMC8728848.
# The other results are listed elsewhere or left out.
# B1: Protein L(B1-B4) (Finegoldia magna), Q51912 (protein)
# chain: KEETPETPETDSEEEVTIKANLIFANGSTQTAEFKGTFEKATSEAYAYADTLKKDNGEYTVDVADKGYTLNIKFAGKEKTPEEPKEEVTIKANLIYADGKTQTAEFKGTFEEATAEAYRYADALKKDNGEYTVDVADKGYTLNIKFAGKEKTPEEPKEEVTIKANLIYADGKTQTAEFKGTFEEATAEAYRYADLLAKENGKYTVDVADKGYTLNIKFAGKEKTPEEPKEEVTIKANLIYADGKTQTAEFKGTFAEATAEAYRYADLLAKENGKYTADLEDGGYTINIRFAG
# Assays:
# Experiment in all cases: glycan array binding signal (z-score within array); higher = stronger binding
# Settings in all cases: glycan notation: IUPAC condensed, linker removed
# [1] = target: Gal(b1-4)GlcNAc(b1-3)Gal(b1-4)GlcNAc(b1-3)Gal(b1-4)GlcNAc(b1-3)Gal(b1-4)GlcNAc(b1-2)Man(a1-3)[Gal(b1-4)GlcNAc(b1-3)Gal(b1-4)GlcNAc(b1-3)Gal(b1-4)GlcNAc(b1-3)Gal(b1-4)GlcNAc(b1-2)Man(a1-6)]Man(b1-4)GlcNAc(b1-4)[Fuc(a1-6)]GlcNAc
# How it was run: (§1)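 From the Consortium for Functional Glycomics database, 3228 arrays were curated, keeping only those whose protein sequence was available. Binding is given as a within-array Z-score averaged across arrays sharing a protein sequence and across linkers. Negative Z-scores can be read as non-binding.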
# [2] = target: Gal(b1-4)GlcNAc(b1-3)Gal(b1-4)GlcNAc(b1-3)Gal(b1-4)GlcNAc(b1-3)Gal(b1-4)GlcNAc(b1-2)[Gal(b1-4)GlcNAc(b1-3)Gal(b1-4)GlcNAc(b1-3)Gal(b1-4)GlcNAc(b1-3)Gal(b1-4)GlcNAc(b1-6)]Man(a1-6)[Gal(b1-4)GlcNAc(b1-3)Gal(b1-4)GlcNAc(b1-3)Gal(b1-4)GlcNAc(b1-3)Gal(b1-4)GlcNAc(b1-2)Man(a1-3)]Man(b1-4)GlcNAc(b1-4)[Fuc(a1-6)]GlcNAc
# How it was run: as §1
# [3] = target: Gal(b1-4)GlcNAc(b1-3)Gal(b1-4)GlcNAc(b1-3)Gal(b1-4)GlcNAc(b1-3)Gal(b1-4)GlcNAc(b1-3)Gal(b1-4)GlcNAc(b1-2)Man(a1-3)[Gal(b1-4)GlcNAc(b1-3)Gal(b1-4)GlcNAc(b1-3)Gal(b1-4)GlcNAc(b1-3)Gal(b1-4)GlcNAc(b1-3)Gal(b1-4)GlcNAc(b1-2)Man(a1-6)]Man(b1-4)GlcNAc(b1-4)GlcNAc
# How it was run: as §1
# [4] = target: Gal(b1-4)GlcNAc(b1-3)Gal(b1-4)GlcNAc(b1-3)Gal(b1-4)GlcNAc(b1-3)Gal(b1-4)GlcNAc(b1-3)Gal(b1-4)GlcNAc(b1-2)Man(a1-3)[Gal(b1-4)GlcNAc(b1-3)Gal(b1-4)GlcNAc(b1-3)Gal(b1-4)GlcNAc(b1-3)Gal(b1-4)GlcNAc(b1-3)Gal(b1-4)GlcNAc(b1-2)Man(a1-6)]Man(b1-4)GlcNAc(b1-4)[Fuc(a1-6)]GlcNAc
# How it was run: as §1
# [5] = target: Gal(b1-4)GlcNAc(b1-3)Gal(b1-4)GlcNAc(b1-3)Gal(b1-4)GlcNAc(b1-3)Gal(b1-4)GlcNAc(b1-3)Gal(b1-4)GlcNAc(b1-2)[Gal(b1-4)GlcNAc(b1-3)Gal(b1-4)GlcNAc(b1-3)Gal(b1-4)GlcNAc(b1-3)Gal(b1-4)GlcNAc(b1-3)Gal(b1-4)GlcNAc(b1-6)]Man(a1-6)[Gal(b1-4)GlcNAc(b1-3)Gal(b1-4)GlcNAc(b1-3)Gal(b1-4)GlcNAc(b1-3)Gal(b1-4)GlcNAc(b1-3)Gal(b1-4)GlcNAc(b1-2)Man(a1-3)]Man(b1-4)GlcNAc(b1-4)[Fuc(a1-6)]GlcNAc
# How it was run: as §1
# [6] = target: Gal(b1-4)GlcNAc(b1-3)Gal(b1-4)GlcNAc(b1-3)Gal(b1-4)GlcNAc(b1-3)Gal(b1-4)GlcNAc(b1-3)Gal(b1-4)GlcNAc(b1-3)Gal(b1-4)GlcNAc(b1-2)Man(a1-3)[Gal(b1-4)GlcNAc(b1-3)Gal(b1-4)GlcNAc(b1-3)Gal(b1-4)GlcNAc(b1-3)Gal(b1-4)GlcNAc(b1-3)Gal(b1-4)GlcNAc(b1-3)Gal(b1-4)GlcNAc(b1-2)Man(a1-6)]Man(b1-4)GlcNAc(b1-4)GlcNAc
# How it was run: as §1
# [7] = target: Gal(b1-4)GlcNAc(b1-3)Gal(b1-4)GlcNAc(b1-3)GalNAc
# How it was run: as §1
# [8] = target: Gal(b1-4)GlcNAc(b1-3)Gal(b1-4)GlcNAc(b1-3)[Gal(b1-4)GlcNAc(b1-3)Gal(b1-4)GlcNAc(b1-6)]GalNAc
# How it was run: as §1
# [9] = target: Gal(b1-4)GlcNAc(b1-3)Gal(b1-4)GlcNAc(b1-6)[Gal(b1-3)]GalNAc
# How it was run: as §1
# [10] = target: Gal(b1-4)GlcNAc(b1-3)Gal(b1-4)[Fuc(a1-3)]GlcNAc(b1-3)Gal(b1-4)[Fuc(a1-3)]GlcNAc
# How it was run: as §1
# [11] = target: Gal(b1-4)GlcNAc(b1-3)GalNAc
# How it was run: as §1
# [12] = target: Gal(b1-4)GlcNAc(b1-3)[Fuc(a1-3)GlcNAc(b1-6)]Gal(b1-4)Glc
# How it was run: as §1
# [13] = target: Gal(b1-4)GlcNAc(b1-3)[Gal(b1-4)GlcNAc(b1-6)]Gal(b1-4)GlcNAc
# How it was run: as §1
# [14] = target: Gal(b1-4)GlcNAc(b1-3)[GlcNAc(b1-6)]Gal(b1-4)GlcNAc
# How it was run: as §1
# [15] = target: Gal(b1-4)GlcNAc(b1-6)Gal(b1-4)GlcNAc
# How it was run: as §1
# [16] = target: Gal(b1-4)GlcNAc(b1-6)GalNAc
# How it was run: as §1
# [17] = target: Gal(b1-4)GlcNAc(b1-6)[Gal(b1-3)]GalNAc
# How it was run: as §1
# [18] = target: Gal(b1-4)GlcNAc(b1-6)[Gal(b1-4)GlcNAc(b1-3)]GalNAc
# How it was run: as §1
# Gal(b1-4)GlcNAc6P = target: Gal(b1-4)GlcNAc6P
# How it was run: as §1
# Gal(b1-6)Gal = target: Gal(b1-6)Gal
# How it was run: as §1
# Gal3S(b1-3)GalNAc = target: Gal3S(b1-3)GalNAc
# How it was run: as §1
# Gal3S(b1-3)GlcNAc = target: Gal3S(b1-3)GlcNAc
# How it was run: as §1
# [19] = target: Gal3S(b1-3)[Fuc(a1-4)]GlcNAc
# How it was run: as §1
binder,measurement,setting,value
B1,glycan array binding signal (z-score),[1],2.4
same,glycan array binding signal (z-score),[2],1.29
same,glycan array binding signal (z-score),[3],0.528
same,glycan array binding signal (z-score),[4],-0.475
same,glycan array binding signal (z-score),[5],2.09
same,glycan array binding signal (z-score),[6],0.532
same,glycan array binding signal (z-score),[7],0.134
same,glycan array binding signal (z-score),[8],4.22
same,glycan array binding signal (z-score),[9],1.15
same,glycan array binding signal (z-score),[10],-0.157
same,glycan array binding signal (z-score),[11],-0.76
same,glycan array binding signal (z-score),[12],0.353
same,glycan array binding signal (z-score),[13],-0.512
same,glycan array binding signal (z-score),[14],-0.842
same,glycan array binding signal (z-score),[15],-0.557
same,glycan array binding signal (z-score),[16],0.521
same,glycan array binding signal (z-score),[17],-0.166
same,glycan array binding signal (z-score),[18],0.339
same,glycan array binding signal (z-score),Gal(b1-4)GlcNAc6P,0.29
same,glycan array binding signal (z-score),Gal(b1-6)Gal,-0.387
same,glycan array binding signal (z-score),Gal3S(b1-3)GalNAc,-1.06
same,glycan array binding signal (z-score),Gal3S(b1-3)GlcNAc,-0.911
same,glycan array binding signal (z-score),[19],-0.386

# Shown with tabs: entries from further up
binder	measurement	setting	value
B1	glycan array binding signal (z-score)	[2]	1.29
same	glycan array binding signal (z-score)	[4]	-0.475
same	glycan array binding signal (z-score)	[6]	0.532
same	glycan array binding signal (z-score)	[14]	-0.842
same	glycan array binding signal (z-score)	[15]	-0.557
same	glycan array binding signal (z-score)	Gal(b1-6)Gal	-0.387
